Source: PubChem BioAssay AID504444 (National Center for Advancing Translational Sciences (NCATS), 2011)
Hit rate of the full screen: of about 360,000 compounds, about 7,500 (2.1%) were called active. Inconclusive results, whose numbers are uncertain, are shown with a selection of clear calls. Calls follow the shape of the dose curve; as a rule, active = well fitted inhibition curve with a large enough effect; inconclusive = small, poorly fitted or top-dose-only effect, or effect the other way; inactive = flat fitted curve, though single readings scatter. Where the call is inconclusive, the potency comes from a doubtful curve fit.

Assay: Nrf2 qHTS screen for inhibitors; also: nearly all actives have a fitted effect of over 60% in size
Conditions: A549 ARE-Fluc reporter, luciferase luminescence, 18-24 h; activity change, negative = inhibition: at 46 µM (top of the series)
In short: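 A549 ARE_Fluc cells (5000/well, 5% FBS OPTI-MEM) pre-incubated 2 h, then treated with compounds 18-24 h at 37C/5% CO2 in concentration-response. CellTiter-Fluor viability read first; BugLite luciferase luminescence after 15 min at room temperature gives Nrf2 activity.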
% is scaled to controls: 0 for no effect and ±100 for the full control effect; potency is read from the fitted curve at half-maximal effect.

Row | SMILES | activity change, negative = inhibition | Potency
1 | COc1cc(OC)cc(C(=O)Nc2ccc(NC(=O)c3ccco3)c(C)c2)c1 | inactive: -6.2% | –
2 | CC(=O)c1cccc(-c2csc(N3CCC(C(N)=O)CC3)n2)c1 | – | inconclusive: 2.31 µM [falling, partial curve, poor fit]
3 | CC(C)c1ccc(NC(=O)[C@H](Cc2c[nH]c3ccccc23)NC(=O)[C@@H]2Cc3ccccc3CN2)cc1 | – | inconclusive: 5.17 µM [activator, full curve]
4 | Cn1c(NC(=S)Nc2ccccc2)nc2ccccc21 | – | inconclusive: 1.03 µM [activator, full curve]
5 | c1cncc(Nc2c3ccccc3nc3ccccc23)c1 | – | inconclusive: 20.6 µM [falling, partial curve, poor fit]
6 | Cc1ccc(S(=O)(=O)CCC(=O)OCC(=O)c2c(N)n(CC(C)C)c(=O)n(C)c2=O)cc1 | – | inconclusive: 10.3 µM [falling, partial curve, poor fit]
7 | COc1ccc(NC(=O)c2ccc3c(c2)C(=O)N(CC2CCCO2)C3=O)c(OC)c1 (stereo unspecified) | – | inconclusive: 29.1 µM [activator, single point]
8 | COc1ccc(-c2c(C#N)c(SCC(N)=O)nc3c2CCCC3)cc1 | – | inconclusive: 9.2 µM [falling, partial curve, poor fit]
9 | Cc1ccc(Cl)cc1N1CCN(C(=O)CN2C(=O)c3cccc4cccc2c34)CC1 | – | inconclusive: 13 µM [falling, partial curve, poor fit]
10 | O=C(O)c1cc(-c2ccc(Cl)c(Cl)c2)n(-c2ccccc2)n1 | – | inconclusive: 29.1 µM [falling, partial curve, poor fit]
11 | COc1ccc(C(=O)Nc2cccc(C)n2)cc1S(=O)(=O)N1CCCc2ccccc21 | – | inconclusive: 10.3 µM [falling, partial curve, poor fit]
12 | CCOc1ccc(N(C)S(=O)(=O)c2ccc3[nH]cc(C(=O)NCCCOC)c(=O)c3c2)cc1 | – | inconclusive: 18.4 µM [falling, single point]
13 | O=C(Nc1ccc(Cl)c(Cl)c1)Nc1ccc(Br)cc1F | – | inconclusive: 29.1 µM [falling, single point]
14 | CCc1ccc(-c2cc(C(F)(F)F)n3nc(C(=O)Nc4c(C)nn(Cc5ccccc5C)c4C)cc3n2)s1 | – | inconclusive: 4.11 µM [falling, full curve, poor fit]
15 | CN(CCC#N)c1ccc(/C=C(\C#N)c2ccccn2)cc1 | – | inconclusive: 3.26 µM [activator, partial curve, poor fit]
16 | COc1ccc(CCN=C(N)NS(=O)(=O)c2ccc(F)cc2)cc1 | – | inconclusive: 23.1 µM [falling, single point]
17 | COc1ccc(CN(C)CC(=O)Nc2sc3c(c2C#N)CCC3)c(OC)c1 | – | inconclusive: 25.9 µM [falling, single point]
18 | COc1ccccc1CNS(=O)(=O)c1c(C)nc2sccn2c1=O | – | inconclusive: 2.06 µM [activator, full curve]
19 | CSc1nnc(-c2cccc(NC(=S)NN)c2)o1 | – | inconclusive: 6.51 µM [falling, single point]
20 | CC(=O)Nc1ccc(S(=O)(=O)Nc2cccc(S(=O)(=O)N(C)c3ccccc3)c2)cc1 | – | inconclusive: 10.3 µM [falling, partial curve]
21 | CN1CCC(N(C)C(=O)c2cc(=O)c3ccccc3o2)CC1 | – | inconclusive: 3.26 µM [activator, partial curve, poor fit]

Part of the list above in order of SMILES length, falling.
Row | SMILES | activity change, negative = inhibition | Potency
10 | O=C(O)c1cc(-c2ccc(Cl)c(Cl)c2)n(-c2ccccc2)n1 | – | inconclusive: 29.1 µM [falling, partial curve, poor fit]
8 | COc1ccc(-c2c(C#N)c(SCC(N)=O)nc3c2CCCC3)cc1 | – | inconclusive: 9.2 µM [falling, partial curve, poor fit]
21 | CN1CCC(N(C)C(=O)c2cc(=O)c3ccccc3o2)CC1 | – | inconclusive: 3.26 µM [activator, partial curve, poor fit]

(cont.)

Row | SMILES | activity change, negative = inhibition | Potency
22 | Cc1[nH]n(-c2ccccc2)c(=O)c1/C=N/N1CCOCC1 | inactive: 4.44% | –
23 | Fc1ccc2c(c1)/C(=N/Nc1ccccn1)CCS2 | inactive: 7.77% | –
24 | CN(Cc1ccccc1F)C(=O)c1ccc(NC(=O)CC2SC(N3CCCCC3)=NC2=O)cc1 (stereo unspecified) | inactive: 15.4% | –
25 | CCC(NC(=O)CCl)c1ccc(C)cc1 (stereo unspecified) | – | active: 23.1 µM
26 | N#CCCn1c(-c2nonc2NC(=O)c2ccccc2Cl)nc2ccccc21 | – | inconclusive: 2.31 µM [falling, full curve, poor fit]
27 | CCCCC(=O)Nc1ncc([N+](=O)[O-])s1 | – | inconclusive: 18.4 µM [falling, single point]
28 | CCN(C(=O)Cn1ncc2c1-c1cc(C)ccc1OC2)c1cc(Cl)ccc1OC | – | inconclusive: 16.4 µM [falling, single point]
29 | Cc1csc(NC(=O)c2ccncc2)n1 | inactive: 12.3% | –
30 | O=C1C=C(N(CCO)Cc2ccccc2)c2ccccc2C1=O | – | active: 20.6 µM
31 | CC(=O)N1c2ccc(S(=O)(=O)N3CCC(C(=O)NCc4ccc(Cl)cc4)CC3)cc2CC1C (stereo unspecified) | – | inconclusive: 18.4 µM [falling, single point]
32 | Cc1cccc(-n2ncc3c2CCCC3NC(=O)CCc2cccnc2)c1C (stereo unspecified) | – | active: 7.31 µM
33 | CCc1ccccc1NC(=O)CSc1ncc2c(n1)-c1ccccc1N(Cc1ccc(C)cc1)S2(=O)=O | inactive: 16.2% | –
34 | O=[N+]([O-])c1ccc(COc2ccc(-c3[nH]ncc3-c3ccccc3)c(O)c2)cc1 | – | inconclusive: 29.1 µM [falling, single point]
35 | Cc1cc(C(=O)Nc2nc(C)c(C(=O)N(C)C)s2)ccc1[N+](=O)[O-] | – | inconclusive: 1.03 µM [activator, partial curve]
36 | Cc1ccc(C2(C)NC(=O)N(CC(=O)Nc3ccc(S(=O)(=O)Nc4nccs4)cc3)C2=O)cc1 (stereo unspecified) | – | inconclusive: 0.411 µM [falling, partial curve, poor fit]
37 | O=S1(=O)N=C(Oc2cccc(C(F)(F)F)c2)c2ccccc21 | inactive: 4.77% | –
38 | CCN(CCn1cccn1)C(=O)c1ccc2nc(Cc3ccc(OC)cc3)oc2c1 | inactive: 4.99% | –
39 | CCOC(=O)c1c(NC(=O)/C=C/C(=O)O)sc(C)c1-c1ccc(F)cc1 | – | inconclusive: 23.1 µM [falling, single point]
40 | COC(=O)C1CCN(C(=O)c2ccc3nc(-c4cccc(OC)c4)oc3c2)CC1 | – | inconclusive: 7.31 µM [activator, partial curve]
41 | CCOc1ccc2nc(NC(=O)NC3CCCCC3)sc2c1 | – | inconclusive: 14.6 µM [activator, partial curve, poor fit]
